Measured values: article PMC5513350
Like-named read-outs stand apart in the source and are kept apart here. Results are given in words; binding and its absence hold for the method and conditions named. Binding seen in cells or lysates may run through a third protein. A yes stands for co-enrichment or nearness to the bait. Other partners may have been found. For some assays here: A no says only that the protein was not detected with the bait. Where a sequence is shown, tags or fusion partners need not be part of it.

Protein sequences, listed by entry. Tags and fused reporters are not part of them.
UniProt Q13148: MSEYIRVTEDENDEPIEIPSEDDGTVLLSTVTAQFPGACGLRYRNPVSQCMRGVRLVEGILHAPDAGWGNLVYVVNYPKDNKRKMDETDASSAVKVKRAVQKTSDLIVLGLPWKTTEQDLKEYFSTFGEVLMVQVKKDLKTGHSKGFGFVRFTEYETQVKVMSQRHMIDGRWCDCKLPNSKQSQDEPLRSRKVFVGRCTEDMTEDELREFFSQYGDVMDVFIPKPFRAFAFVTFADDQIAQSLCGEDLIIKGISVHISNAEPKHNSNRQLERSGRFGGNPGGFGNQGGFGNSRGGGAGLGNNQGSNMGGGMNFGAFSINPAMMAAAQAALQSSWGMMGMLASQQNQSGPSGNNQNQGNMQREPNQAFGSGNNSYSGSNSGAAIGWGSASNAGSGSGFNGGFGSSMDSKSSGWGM

T1: HNRNPM fused to BirA*-FLAG (human) (UniProt P52272)
T1 sequence: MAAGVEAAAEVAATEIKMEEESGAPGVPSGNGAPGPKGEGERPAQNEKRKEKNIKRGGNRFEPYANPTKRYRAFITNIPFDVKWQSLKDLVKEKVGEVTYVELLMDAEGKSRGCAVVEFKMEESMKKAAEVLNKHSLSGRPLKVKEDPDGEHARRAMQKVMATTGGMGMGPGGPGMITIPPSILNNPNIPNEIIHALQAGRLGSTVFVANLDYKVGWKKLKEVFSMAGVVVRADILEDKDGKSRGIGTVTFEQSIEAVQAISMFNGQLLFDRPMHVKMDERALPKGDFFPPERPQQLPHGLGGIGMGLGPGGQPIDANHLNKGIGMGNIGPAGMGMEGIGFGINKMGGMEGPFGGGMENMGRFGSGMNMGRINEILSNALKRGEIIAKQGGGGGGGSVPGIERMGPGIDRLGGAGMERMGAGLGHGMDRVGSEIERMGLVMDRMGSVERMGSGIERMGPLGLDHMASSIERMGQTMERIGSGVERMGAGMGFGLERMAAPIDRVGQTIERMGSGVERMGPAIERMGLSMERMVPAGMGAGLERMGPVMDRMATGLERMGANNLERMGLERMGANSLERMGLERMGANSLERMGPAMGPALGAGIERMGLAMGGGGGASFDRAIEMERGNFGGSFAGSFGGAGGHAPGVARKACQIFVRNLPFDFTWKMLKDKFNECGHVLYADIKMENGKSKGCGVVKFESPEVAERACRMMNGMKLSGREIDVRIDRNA

T2: MYEF2 fused to BirA*-FLAG (human) (UniProt Q9P2K5)
T2 sequence: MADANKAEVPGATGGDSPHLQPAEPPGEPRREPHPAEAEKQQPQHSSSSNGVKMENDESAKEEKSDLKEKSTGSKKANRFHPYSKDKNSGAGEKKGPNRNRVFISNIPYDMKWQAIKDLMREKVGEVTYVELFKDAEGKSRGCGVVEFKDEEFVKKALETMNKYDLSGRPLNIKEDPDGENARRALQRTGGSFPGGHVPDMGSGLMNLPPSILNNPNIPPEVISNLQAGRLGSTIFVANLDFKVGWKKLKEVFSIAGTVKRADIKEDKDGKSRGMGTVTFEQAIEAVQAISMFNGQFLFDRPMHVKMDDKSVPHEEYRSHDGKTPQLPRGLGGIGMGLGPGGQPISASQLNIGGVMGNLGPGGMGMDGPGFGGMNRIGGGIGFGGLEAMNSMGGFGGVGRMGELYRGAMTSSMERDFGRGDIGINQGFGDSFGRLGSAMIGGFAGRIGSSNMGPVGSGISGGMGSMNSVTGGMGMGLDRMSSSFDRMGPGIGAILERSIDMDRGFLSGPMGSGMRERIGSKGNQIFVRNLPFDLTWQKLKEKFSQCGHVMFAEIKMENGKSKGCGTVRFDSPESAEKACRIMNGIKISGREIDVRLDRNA


Tests used:
Test in all cases: proximity labelling; BioID-MS: bait fused to FLAG-BirA* stably expressed in Flp-In T-REx 293 cells, 1 ug/mL tetracycline, 50 uM biotin; lysis in modified RIPA buffer, streptavidin-sepharose, trypsin, mass spectrometry; two biological replicates alongside negative controls
[1] = molecular target: T1, HNRNPM fused to BirA*-FLAG (human)
[2] = molecular target: T2, MYEF2 fused to BirA*-FLAG (human)
[3] = molecular target: T1, HNRNPM fused to BirA*-FLAG (human); remark: listed apart in the source
[4] = molecular target: T2, MYEF2 fused to BirA*-FLAG (human); remark: listed apart in the source

| binding [1] | binding [2] | binding [3] | binding [4] | Molecule |
| --- | --- | --- | --- | --- |
| binds | binds | – | – | TARDBP/TDP43 (from UniProt Q13148 1-414) |
| – | – | no binding | binds | DROSHA (protein, UniProt Q9NRR4 1-1374) MMQGNTCHRMSFHPGRGCPRGRGGHGARPSAPSFRPQNLRLLHPQQPPVQYQYEPPSAPSTTFSNSPAPNFLPPRPDFVPFPPPMPPSAQGPLPPCPIRPPFPNHQMRHPFPVPPCFPPMPPPMPCPNNPPVPGAPPGQGTFPFMMPPPSMPHPPPPPVMPQQVNYQYPPGYSHHNFPPPSFNSFQNNPSSFLPSANNSSSPHFRHLPPYPLPKAPSERRSPERLKHYDDHRHRDHSHGRGERHRSLDRRERGRSPDRRRQDSRYRSDYDRGRTPSRHRSYERSRERERERHRHRDNRRSPSLERSYKKEYKRSGRSYGLSVVPEPAGCTPELPGEIIKNTDSWAPPLEIVNHRSPSREKKRARWEEEKDRWSDNQSSGKDKNYTSIKEKEPEETMPDKNEEEEEELLKPVWIRCTHSENYYSSDPMDQVGDSTVVGTSRLRDLYDKFEEELGSRQEKAKAARPPWEPPKTKLDEDLESSSESECESDEDSTCSSSSDSEVFDVIAEIKRKKAHPDRLHDELWYNDPGQMNDGPLCKCSAKARRTGIRHSIYPGEEAIKPCRPMTNNAGRLFHYRITVSPPTNFLTDRPTVIEYDDHEYIFEGFSMFAHAPLTNIPLCKVIRFNIDYTIHFIEEMMPENFCVKGLELFSLFLFRDILELYDWNLKGPLFEDSPPCCPRFHFMPRFVRFLPDGGKEVLSMHQILLYLLRCSKALVPEEEIANMLQWEELEWQKYAEECKGMIVTNPGTKPSSVRIDQLDREQFNPDVITFPIIVHFGIRPAQLSYAGDPQYQKLWKSYVKLRHLLANSPKVKQTDKQKLAQREEALQKIRQKNTMRREVTVELSSQGFWKTGIRSDVCQHAMMLPVLTHHIRYHQCLMHLDKLIGYTFQDRCLLQLAMTHPSHHLNFGMNPDHARNSLSNCGIRQPKYGDRKVHHMHMRKKGINTLINIMSRLGQDDPTPSRINHNERLEFLGDAVVEFLTSVHLYYLFPSLEEGGLATYRTAIVQNQHLAMLAKKLELDRFMLYAHGPDLCRESDLRHAMANCFEALIGAVYLEGSLEEAKQLFGRLLFNDPDLREVWLNYPLHPLQLQEPNTDRQLIETSPVLQKLTEFEEAIGVIFTHVRLLARAFTLRTVGFNHLTLGHNQRMEFLGDSIMQLVATEYLFIHFPDHHEGHLTLLRSSLVNNRTQAKVAEELGMQEYAITNDKTKRPVALRTKTLADLLESFIAALYIDKDLEYVHTFMNVCFFPRLKEFILNQDWNDPKSQLQQCCLTLRTEGKEPDIPLYKTLQTVGPSHARTYTVAVYFKGERIGCGKGPSIQQAEMGAAMDALEKYNFPQMAHQKRFIERKYRQELKEMRWEREHQEREPDETEDIKK |
| – | – | – | binds | DGCR8 (protein, UniProt Q8WYQ5 1-773) METDESPSPLPCGPAGEAVMESRARPFQALPREQSPPPPLQTSSGAEVMDVGSGGDGQSELPAEDPFNFYGASLLSKGSFSKGRLLIDPNCSGHSPRTARHAPAVRKFSPDLKLLKDVKISVSFTESCRSKDRKVLYTGAERDVRAECGLLLSPVSGDVHACPFGGSVGDGVGIGGESADKKDEENELDQEKRVEYAVLDELEDFTDNLELDEEGAGGFTAKAIVQRDRVDEEALNFPYEDDFDNDVDALLEEGLCAPKKRRTEEKYGGDSDHPSDGETSVQPMMTKIKTVLKSRGRPPTEPLPDGWIMTFHNSGVPVYLHRESRVVTWSRPYFLGTGSIRKHDPPLSSIPCLHYKKMKDNEEREQSSDLTPSGDVSPVKPLSRSAELEFPLDEPDSMGADPGPPDEKDPLGAEAAPGALGQVKAKVEVCKDESVDLEEFRSYLEKRFDFEQVTVKKFRTWAERRQFNREMKRKQAESERPILPANQKLITLSVQDAPTKKEFVINPNGKSEVCILHEYMQRVLKVRPVYNFFECENPSEPFGASVTIDGVTYGSGTASSKKLAKNKAARATLEILIPDFVKQTSEEKPKDSEELEYFNHISIEDSRVYELTSKAGLLSPYQILHECLKRNHGMGDTSIKFEVVPGKNQKSEYVMACGKHTVRGWCKNKRVGKQLASQKILQLLHPHVKNWGSLLRMYGRESSKMVKQETSDKSVIELQQYAKKNKPNLHILSKLQEEMKRLAEEREETRKKPKMSIVASAQPGGEPLCTVDV |
